In patent US20070248617A1 (published 2007):
Results are given in words; binding and its absence hold for the method and conditions named. Some results given as binding are weak or reduced against the parent protein; the word gives no strength. Sequences can lack the tags named with a protein.

The chains behind the UniProt entries cited, without tags or fusion partners. Where a name states a change or a piece, a line headed by the entry shows the natural chain unless it says otherwise.
UniProt O35235: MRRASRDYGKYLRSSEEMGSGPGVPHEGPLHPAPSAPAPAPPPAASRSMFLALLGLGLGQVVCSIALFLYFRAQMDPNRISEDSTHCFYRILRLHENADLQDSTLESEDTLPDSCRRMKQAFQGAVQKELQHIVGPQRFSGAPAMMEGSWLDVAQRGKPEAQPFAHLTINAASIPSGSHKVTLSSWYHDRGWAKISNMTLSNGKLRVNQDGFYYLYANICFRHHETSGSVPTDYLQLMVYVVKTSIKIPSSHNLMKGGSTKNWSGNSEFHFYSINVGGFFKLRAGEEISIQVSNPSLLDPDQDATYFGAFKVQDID

Molecular target: mouse RANKL protein (mouse) (UniProt O35235)
Test: ELISA, mouse RANKL coated at 10 µg/ml, serial dilutions of mouse RANK-hFc, anti-hFc-HRP detection

B1: recombinant mouse RANK-hFc fusion protein (Fc fusion, UniProt O35305 31-214, looked up, not shown: a dimerising Fc or GST)
chain: VTPPCTQERHYEHLGRCCSRCEPGKYLSSKCTPTSDSVCLPCGPDEYLDTWNEEDKCLLHKVCDAGKALVAVDPGNHTAPRRCACTAGYHWNSDCECCRRNTECAPGFGAQHPLQLNKDTVCTPCLLGFFSDVFSSTDKCKPWTNCTLLGKLEAHQGTTESDVVCSSSMTLRRPPKEAQAYLPS
  binding: binds
